In patent US5162231A, “Method of using 5,10,15,20-tetrakis(carboxyphenyl)porphine for detecting cancers of the lung” (priority 1990, dated 1992):
For at least one compound, name, drawing or mass did not settle the structure.

System: malignant sputum cells
Experiment: Porphyrin uptake in sputum cells evaluated with a fluorescent microscope
Assay type: cell-based, human
Details: 200 μg/ml, 37° C.; four porphyrins compared
From the text: Five parameters were investigated for this study: (1) the effect of various sputum processing procedures on the uptake of porphyrin in sputum cells, (2) the comparison of TCPP to three other porphyrins that are known for their uptake by tumors, (3) the time required for optimal uptake of the porphyrin in sputum cells, (4) the uptake of porphyrin in test and control sputum samples, and (5) the verification that TCPP was localizing in malignant sputum cells. In each of these investigations, the uptake of porphyrin in sputum cells was evaluated with a fluorescent microscope. Nonmetallated porphyrin fluoresces at approximately 650 nm. Sputum samples were evaluated for (1) the number of cells in the sputum samples which fluoresced, and (2) the intensity of the porphyrin fluorescence. […]
Following the incubation period, each sputum sample was examined for porphyrin uptake with a fluorescent microscope. The background fluorescence from porphyrin uptake by nonmalignant cells was lower in some measurements.
Each sputum sample was incubated at 37° C. with each of the porphyrins for either 6 or 24 hours and then evaluated for porphyrin uptake with a fluorescent microscope. At the 6 hour incubation period, the cells had begun to localize porphyrin; however, when the sputum cells were washed with PBS, the fluorescence diminished considerably. […]

With `O=S(=O)(O)c1ccc(-c2c3nc(c(-c4ccc(S(=O)(=O)O)cc4)c4ccc([nH]4)c(-c4ccc(S(=O)(=O)O)cc4)c4nc(c(-c5ccc(S(=O)(=O)O)cc5)c5ccc2[nH]5)C=C4)C=C3)cc1` [TPPS, 5,10,15,20-tetrakis(4-sulfonatophenyl)porphine, reference compound] the porphyrin uptake was “moderate porphyrin uptake”.
